# Test results as given in ChEMBL document CHEMBL6127022, “Acid-sensitive prodrugs; a promising approach for site-specific and targeted drug release” (Eur J Med Chem, 2024).
# What was measured:
# Staphylococcus aureus [1] = assay: microbe, parasite or virus in culture; conditions: 12 h
# Staphylococcus aureus [2] = assay: microbe, parasite or virus in culture; conditions: ATCC 33592
smiles,measurement,setting,value
CN[C@H](CC(C)C)C(=O)N[C@H]1C(=O)N[C@@H](CC(N)=O)C(=O)N[C@H]2C(=O)N[C@H]3C(=O)N[C@H](C(=O)N[C@H](C(=O)O)c4cc(O)cc(O)c4-c4cc3ccc4O)[C@H](O)c3ccc(c(Cl)c3)Oc3cc2cc(c3O[C@@H]2O[C@H](CO)[C@@H](O)[C@H](O)[C@H]2O[C@H]2C[C@](C)(N)[C@H](O)[C@H](C)O2)Oc2ccc(cc2Cl)[C@H]1O [VANCOMYCIN],MIC,Staphylococcus aureus [1],7.81 µg/mL
same,MIC,Staphylococcus aureus [2],62.5 µg/mL
